Measurements from patent publication US11813239B2, “Compositions and methods for improving cardiac structure and/or function” (Wisconsin Alumni Research Foundation, priority 2020, dated 2023).

Experiments:
[1] = tested on: postnatal (P7) mouse heart following myocardial infarction; experiment: Echocardiography after myocardial infarction in P7 juvenile mice; conditions: mean ± SE
[2] = tested on: adult mouse heart following myocardial infarction; experiment: Echocardiography after adult MI, malonate treatment starting 1-week post-MI; conditions: adult mice, mean ± SE

| SMILES | HR (Heart Rate) ([1]; MI at P7 (n = 8), Atpenin A5 100 μg/kg daily, echo 21 days post-MI (P7D21)) | HR (Heart Rate) ([1]; sham at P7 (SH, n = 6), Atpenin A5 100 μg/kg daily, echo at day 21 (P7D21)) | HR (Heart Rate) ([2]; MI, 2 WPMI, dimethyl malonate 100 mg/kg daily for 4 weeks starting 1 WPMI) | HR (Heart Rate) ([2]; MI, 3 WPMI, dimethyl malonate 100 mg/kg daily for 4 weeks starting 1 WPMI) | HR (Heart Rate) ([2]; MI, 4 WPMI, dimethyl malonate 100 mg/kg daily for 4 weeks starting 1 WPMI) | HR (Heart Rate) ([2]; MI, 6 WPMI, dimethyl malonate 100 mg/kg daily for 4 weeks starting 1 WPMI) | HR (Heart Rate) ([2]; malonate group, MI, 1 WPMI (before start of dosing)) | HR (Heart Rate) ([2]; malonate group, Pre (before MI and dosing)) | HR (Heart Rate) ([1]; MI at P7 (n = 6), dimethyl malonate 100 mg/kg daily for 2 weeks from birth, echo 21 days post-MI (P7D21)) | HR (Heart Rate) ([1]; sham at P7 (SH, n = 6), dimethyl malonate 100 mg/kg daily for 2 weeks from birth, echo at day 21 (P7D21)) |
| --- | --- | --- | --- | --- | --- | --- | --- | --- | --- | --- |
| COc1[nH]c(=O)c(C(=O)[C@@H](C)C[C@H](C)[C@@H](Cl)CCl)c(O)c1OC [Atpenin A5] | 387.000 ± 22.475 BPM | 426.833 ± 19.170 BPM | – | – | – | – | – | – | – | – |
| COC(=O)CC(=O)OC [Malonate, dimethyl malonate] | – | – | 540.500 ± 33.895 BPM | 486.500 ± 19.347 BPM | 456.833 ± 40.940 BPM | 465.000 ± 18.925 BPM | 462.600 ± 26.250 BPM | 481.167 ± 53.447 BPM | 435.667 ± 24.313 BPM | 401.000 ± 28.109 BPM |
